Publication PMC4756812, “ZFP57 recognizes multiple and closely spaced sequence motif variants to maintain repressive epigenetic marks in mouse embryonic stem cells”
Construct, isoform or probe ends are uncertain for at least one entry. The comparison behind a weaker result is the experiment's own reference, which may not be listed here. At least one verdict rests on a figure or table, not on a statement of the authors. Protein sequences can lack the tags named with them.

Target: T1, MBP-ZFP57 DNA binding domain (Glu87-Ala195) (Mus musculus) (UniProt Q8C6P8)
T1 sequence (looked up): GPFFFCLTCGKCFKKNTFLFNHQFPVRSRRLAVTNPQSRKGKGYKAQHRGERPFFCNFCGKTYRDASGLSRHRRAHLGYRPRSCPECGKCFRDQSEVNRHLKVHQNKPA
Assay: EMSA
Conditions: EMSA: 25 pmol protein, 2.5 pmol dsDNA, 25 mM HEPES pH 7.9, 50 mM KCl, 6.25 mM MgCl2, 5% glycerol, on ice 10 min, 5% PAGE, SYBR Green stain, recombinant protein, residues 87-195

Sequence	binding result	binding result (5mC at top 11 and bottom 9)	other results
GTAATATAGCCGCAGTAATA (double strand) [1A]	binds more weakly	–	–
GTAATATAGCCGCAGTAATA (double strand) [Methylated 1A]	–	binds more weakly	–
GTAATATCGCCGCAGTAATA (double strand) [1C]	binds more weakly	–	–
GTAATATCGCCGCAGTAATA (double strand) [Methylated 1C]	–	–	binding result (5mC at top 11 and bottom 9 and 12, legend says two methylated CpGs, but top 8 is printed as C): binds more weakly
GTAATATTACCGCAGTAATA (double strand) [2A]	binds more weakly	–	–
GTAATATTACCGCAGTAATA (double strand) [Methylated 2A]	–	binds more weakly	–
GTAATATTCCCGCAGTAATA (double strand) [2C]	binds more weakly	–	–
GTAATATTCCCGCAGTAATA (double strand) [Methylated 2C]	–	binds more weakly	–
GTAATATTGACGCAGTAATA (double strand) [3A]	binds more weakly	–	–
GTAATATTGACGCAGTAATA (double strand) [Methylated 3A]	–	binds more weakly	–
GTAATATTGCCACAGTAATA (double strand) [5A]	binds more weakly	–	–
GTAATATTGCCCCAGTAATA (double strand) [5C]	binds more weakly	–	–
GTAATATTGCCGAAGTAATA (double strand) [6A]	binds more weakly	–	–
GTAATATTGCCGAAGTAATA (double strand) [Methylated 6A]	–	binds more weakly	–
GTAATATTGCCGGAGTAATA (double strand) [6G]	binds more weakly	–	–
GTAATATTGCCGGAGTAATA (double strand) [Methylated 6G]	–	binds more weakly	–
GTAATATTGCCGTAGTAATA (double strand) [6T]	binds more weakly	–	–
GTAATATTGCCGTAGTAATA (double strand) [Methylated 6T]	–	binds more weakly	–
GTAATATTGCCTCAGTAATA (double strand) [5T]	binds more weakly	–	–
GTAATATTGGCGCAGTAATA (double strand) [3G]	binds more weakly	–	–
GTAATATTGGCGCAGTAATA (double strand) [Methylated 3G]	–	binds more weakly	–
GTAATATTGTCGCAGTAATA (double strand) [3T]	binds more weakly	–	–
GTAATATTGTCGCAGTAATA (double strand) [Methylated 3T]	–	binds more weakly	–
GTAATATTTCCGCAGTAATA (double strand) [2T]	binds more weakly	–	–
GTAATATTTCCGCAGTAATA (double strand) [Methylated 2T]	–	binds more weakly	–
